For at least one compound, name, drawing or mass did not settle the structure.
Test system: E. coli ATCC 25922
Experiment: MIC by agar dilution, E. coli ATCC 25922
Format: cell-based
Conditions: in words
Protocol: The compounds of the invention were evaluated against several β-lactamresistant bacteria strains by determining the minimum inhibitory concentration (MIC, μg/ml) of each compound with respect to each strain. The MIC, the lowest concentration of antibiotic which inhibits growth of the test organism, was determined by the agar dilution method.
To determine the MIC for bacterial isolates, the test compound was incorporated in a series of two-fold dilutions into liquified Mueller-Hinton agar. Upon solidification, a number of different bacterial strains were spot inoculated with a replicating device onto the agar surface. […] The procedures used in these studies have been standardized by the National Committee for Clinical Laboratory Standards (NCCLS), as per the NCCLS publication entitled METHODS FOR DILUTION ANTIMICROBIAL SUSCEPTIBILITY TESTS (1991), which is incorporated herein by reference.
Aliquots of antimicrobial agents were prepared in phosphate buffered saline (PBS) at pH 7.2. Tween 20 or DMSO was used as a solubilizing vehicle as needed. Standard methods of vortexing, sonicating and gentle heat were used to facilitate solubilizing the test agent. […]
Disposable sterile 1 μL loops were used to inoculate test plates, with each isolate in a designated grid on the agar plate. […] Endpoints were assessed as the minimum inhibitory concentration (MIC) of antimicrobial agent.

Nc1nc(/C(=N/O)C(=O)N[C@@H]2C(=O)N3C(C(=O)O)=C(Sc4ccccc4I)CS[C@H]23)cs1 [Cmpd 22, (7R)-7-[(Z)-2-(aminothiazol-4-yl)-2-(hydroxyimino)acetamido]-3-(o-iodophenylthio)-3-cephem-4-carboxylic acid]
activity against E. coli: effective

Source: US5698547A, “Cephalosporin antibiotics” (Microcide Pharmaceuticals, Inc., priority 1995, dated 1997)
